# System: HT-29 spheroids (CSCs)
# Experiment: Primary spheroids inhibition assay, HT-29
# Format: cell-based
# Conditions: monolayer vs spheroid
# Experimental: The inhibitory potential of lipid-modified compounds of Formula I against CSCs was tested using a primary spheroids inhibition assay in various cancer cell lines including HT-29, RKO, HCT-116, LS1034, HC-15, WiDr, SW480, COLO205, NCI-H508, SW1116, LS174T, KM12 etc. Cells were grown both under monolayer and spheroid conditions as described in earlier work [Patel, N. J., et al. ACS Chem. Biol. 2014, 9, 1826-1833]. For primary sphere assay, cells were plated in non-treated, low adhesion, 96 wells plate at the concentration of 100 cells/100 μL/well in stem cell media (SCM) that consisted of DMEM:F12:AA, supplemented with 1×B27, 20 ng/mL epidermal growth factor, and 10 ng/mL fibroblast growth factor. After 4 h of incubation, vehicle (control) or G2.2 and its lipid analogs at the desired concentrations were added to each well (at least in triplicates for each sample). On day five, numbers of spheres ranging from 50 to 150 micrometers in diameter were counted using phase contrast microscope and percent inhibition was calculated compared to control. For monolayer assay, approximately 2.5×10^3 cells/100 μL/well were plated in 96-well tissue culture treated plate. After overnight incubation at 37° C. vehicle (control) or G2.2 was added at the desired concentration and the cells were further incubated for 60-72 h. At the end of the incubation, 10 μL of 5 mg mL^−1 MTT solution ((3-(4,5-dimethylthiazol-2-yl)-2,5-diphenyltetrazolium bromide, Sigma) made in phosphate buffered saline (PBS) (Gibco) was added to each well and incubated for minimum of 2 to 3 h until crystals formation was observed. Following this, 150 μL of 4 mM HCl (Sigma) in isopropanol solution was added dropwise to each well and the mixture was triturated until the crystals dissolve completely. Finally, the plate was placed on the spectrophotometer reader and read at 590 nm and growth inhibition was calculated as percent of control.
row,SMILES,Selectivity Index
1,CC(C)CCCC(C)C1CCC2C3CC=C4CC(OCCCCCOc5cc(-c6oc7cc(OS(=O)(=O)[O-])cc(OCCCOc8cc(OS(=O)(=O)[O-])cc9oc(-c%10ccc(OS(=O)(=O)[O-])c(OS(=O)(=O)[O-])c%10)c(OS(=O)(=O)[O-])c(=O)c89)c7c(=O)c6OS(=O)(=O)[O-])ccc5OS(=O)(=O)[O-])CCC4(C)C3CCC12C.[Na+].[Na+].[Na+].[Na+].[Na+].[Na+].[Na+] (stereo not drawn) [IIb],>60
2,CC(C)CCCC(C)C1CCC2C3CC=C4CC(OCCCCCCCCOc5cc(-c6oc7cc(OS(=O)(=O)[O-])cc(OCCCOc8cc(OS(=O)(=O)[O-])cc9oc(-c%10ccc(OS(=O)(=O)[O-])c(OS(=O)(=O)[O-])c%10)c(OS(=O)(=O)[O-])c(=O)c89)c7c(=O)c6OS(=O)(=O)[O-])ccc5OS(=O)(=O)[O-])CCC4(C)C3CCC12C.[Na+].[Na+].[Na+].[Na+].[Na+].[Na+].[Na+] (stereo not drawn) [IIc],1348
3,O=c1c(OS(=O)(=O)O)c(-c2ccc(OS(=O)(=O)O)c(OS(=O)(=O)O)c2)oc2cc(OS(=O)(=O)O)cc(OCCCOc3cc(OS(=O)(=O)O)cc4oc(-c5ccc(OS(=O)(=O)O)c(OS(=O)(=O)O)c5)c(OS(=O)(=O)O)c(=O)c34)c12 [Compound G2.2],>17
